Source: article PMC6715699
These are yes or no findings as the source states them, for the method shown. In cells and extracts the contact can be indirect. Binding calls can cover weak binding; strength is not graded here.

Sequences of proteins named here, by UniProt entry; tags and fusion partners are left off. A change or cut given only in a name is not applied to a line headed by its entry.
UniProt Q06330: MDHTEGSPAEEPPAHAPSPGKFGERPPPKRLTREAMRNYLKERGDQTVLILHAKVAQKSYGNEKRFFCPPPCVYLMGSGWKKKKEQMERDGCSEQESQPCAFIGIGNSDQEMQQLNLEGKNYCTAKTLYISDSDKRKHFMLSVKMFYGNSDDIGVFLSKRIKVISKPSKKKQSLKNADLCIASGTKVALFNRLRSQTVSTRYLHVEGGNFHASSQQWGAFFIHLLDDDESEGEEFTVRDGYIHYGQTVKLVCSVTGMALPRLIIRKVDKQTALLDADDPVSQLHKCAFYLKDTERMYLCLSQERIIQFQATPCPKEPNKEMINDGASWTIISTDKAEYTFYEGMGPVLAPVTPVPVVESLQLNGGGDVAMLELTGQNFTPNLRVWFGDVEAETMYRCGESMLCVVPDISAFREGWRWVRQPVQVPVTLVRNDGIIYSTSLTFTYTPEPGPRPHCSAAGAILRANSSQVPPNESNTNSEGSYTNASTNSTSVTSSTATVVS

Target: FLAG-tagged CSL V237R (human) (UniProt Q06330)
Experiment: co-IP; HEK293T cells expressing FLAG-tagged CSL FL, BTD or point mutants plus/minus FL UPF1 or FL Ku70; anti-FLAG M2 magnetic beads, immunoblotting

binding: binds
B1: UPF1 in HEK293T cells (protein, UniProt Q92900 1-1129)
chain: MSVEAYGPSSQTLTFLDTEEAELLGADTQGSEFEFTDFTLPSQTQTPPGGPGGPGGGGAGGPGGAGAGAAAGQLDAQVGPEGILQNGAVDDSVAKTSQLLAELNFEEDEEDTYYTKDLPIHACSYCGIHDPACVVYCNTSKKWFCNGRGNTSGSHIVNHLVRAKCKEVTLHKDGPLGETVLECYNCGCRNVFLLGFIPAKADSVVVLLCRQPCASQSSLKDINWDSSQWQPLIQDRCFLSWLVKIPSEQEQLRARQITAQQINKLEELWKENPSATLEDLEKPGVDEEPQHVLLRYEDAYQYQNIFGPLVKLEADYDKKLKESQTQDNITVRWDLGLNKKRIAYFTLPKTDSGNEDLVIIWLRDMRLMQGDEICLRYKGDLAPLWKGIGHVIKVPDNYGDEIAIELRSSVGAPVEVTHNFQVDFVWKSTSFDRMQSALKTFAVDETSVSGYIYHKLLGHEVEDVIIKCQLPKRFTAQGLPDLNHSQVYAVKTVLQRPLSLIQGPPGTGKTVTSATIVYHLARQGNGPVLVCAPSNIAVDQLTEKIHQTGLKVVRLCAKSREAIDSPVSFLALHNQIRNMDSMPELQKLQQLKDETGELSSADEKRYRALKRTAERELLMNADVICCTCVGAGDPRLAKMQFRSILIDESTQATEPECMVPVVLGAKQLILVGDHCQLGPVVMCKKAAKAGLSQSLFERLVVLGIRPIRLQVQYRMHPALSAFPSNIFYEGSLQNGVTAADRVKKGFDFQWPQPDKPMFFYVTQGQEEIASSGTSYLNRTEAANVEKITTKLLKAGAKPDQIGIITPYEGQRSYLVQYMQFSGSLHTKLYQEVEIASVDAFQGREKDFIILSCVRANEHQGIGFLNDPRRLNVALTRARYGVIIVGNPKALSKQPLWNHLLNYYKEQKVLVEGPLNNLRESLMQFSKPRKLVNTINPGARFMTTAMYDAREAIIPGSVYDRSSQGRPSSMYFQTHDQIGMISAGPSHVAAMNIPIPFNLVMPPMPPPGYFGQANGPAAGRGTPKGKTGRGGRQKNRFGLPGPSQTNLPNSQASQDVASQPFSQGALTQGYISMSQPSQMSQPGLSQPELSQDSYLGDEFKSQIDVALSQDSTYQGERAYQHGGVTGLSQY
